According to article PMC10819763, “Reconstitution of the phosphodiesterase 6 maturation process important for photoreceptor cell function” (The Journal of Biological Chemistry, 2023):
No constants are given. Whether binding was seen depends on the method and setting. Some entries that bind do so weakly or less than the wild type. Tags and fused reporters may be left off the sequences shown.

The chains behind the UniProt entries cited, without tags or fusion partners. Residues count along the entry.
UniProt P51160, residues 1-830: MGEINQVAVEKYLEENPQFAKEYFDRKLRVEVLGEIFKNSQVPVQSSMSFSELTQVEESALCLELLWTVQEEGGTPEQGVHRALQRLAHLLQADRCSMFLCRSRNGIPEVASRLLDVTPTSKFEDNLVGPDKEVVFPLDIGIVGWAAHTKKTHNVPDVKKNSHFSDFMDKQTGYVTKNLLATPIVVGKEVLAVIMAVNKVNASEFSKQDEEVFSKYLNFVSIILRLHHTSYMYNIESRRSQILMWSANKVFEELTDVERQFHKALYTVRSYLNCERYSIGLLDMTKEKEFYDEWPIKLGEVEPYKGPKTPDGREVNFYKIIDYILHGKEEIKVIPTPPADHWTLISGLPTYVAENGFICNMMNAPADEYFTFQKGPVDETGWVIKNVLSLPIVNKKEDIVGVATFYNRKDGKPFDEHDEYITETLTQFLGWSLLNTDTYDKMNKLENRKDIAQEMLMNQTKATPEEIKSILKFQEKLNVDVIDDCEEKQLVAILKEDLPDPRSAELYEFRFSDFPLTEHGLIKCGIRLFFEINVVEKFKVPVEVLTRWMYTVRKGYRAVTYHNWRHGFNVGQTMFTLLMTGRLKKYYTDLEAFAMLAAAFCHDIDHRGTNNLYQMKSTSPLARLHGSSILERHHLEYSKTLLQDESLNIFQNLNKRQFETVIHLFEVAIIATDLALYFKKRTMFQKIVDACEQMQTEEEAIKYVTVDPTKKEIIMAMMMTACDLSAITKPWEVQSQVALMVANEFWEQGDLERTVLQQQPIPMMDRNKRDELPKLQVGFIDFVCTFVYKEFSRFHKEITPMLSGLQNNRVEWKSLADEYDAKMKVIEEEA

Biological target: human cone PDE6C (aa 1-830), expressed as an EGFP fusion protein and released with HRV-3C protease (human) (UniProt P51160)
Experiment: mass photometry; concentrated peak SEC fraction of PDE6C co-expressed with AIPL1 and Pγ; Refeyn TwoMP, 25 °C, DPBS without calcium and magnesium, 3 to 5 μl of 100 nM protein into 15 μl buffer; both purified

binding: binds
B1: His6-tagged bovine Pγr (rod PDE6 inhibitory γ-subunit), bacterially expressed (natural protein, UniProt P04972 1-87, looked up)
chain: MNLEPPKAEIRSATRVMGGPVTPRKGPPKFKQRQTRQFKSKPPKKGVQGFGDDIPGMEGLGTDITVICPWEAFNHLELHELAQYGII
notes: also called rod Pγ; purified recombinant Pγr
